In patent publication US20230348540A1, “Viral multimeric peptide constructs for targeting PDZ domains” (University of Copenhagen, priority 2020, published 2023):
Results are given in words; binding and its absence hold for the method and conditions named. For part of these data: Binding seen in cells or lysates may run through a third protein. Some binding calls cover weakened binding; strength is not graded here.

By UniProt entry, the sequences of proteins in these tests, tags left out. Residues count along the entry.
UniProt P78352, residues 61-249: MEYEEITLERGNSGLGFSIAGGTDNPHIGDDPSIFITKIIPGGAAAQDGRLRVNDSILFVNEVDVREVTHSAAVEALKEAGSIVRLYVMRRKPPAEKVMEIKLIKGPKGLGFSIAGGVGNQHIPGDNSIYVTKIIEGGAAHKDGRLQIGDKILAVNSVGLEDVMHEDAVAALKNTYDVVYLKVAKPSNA
UniProt Q62108: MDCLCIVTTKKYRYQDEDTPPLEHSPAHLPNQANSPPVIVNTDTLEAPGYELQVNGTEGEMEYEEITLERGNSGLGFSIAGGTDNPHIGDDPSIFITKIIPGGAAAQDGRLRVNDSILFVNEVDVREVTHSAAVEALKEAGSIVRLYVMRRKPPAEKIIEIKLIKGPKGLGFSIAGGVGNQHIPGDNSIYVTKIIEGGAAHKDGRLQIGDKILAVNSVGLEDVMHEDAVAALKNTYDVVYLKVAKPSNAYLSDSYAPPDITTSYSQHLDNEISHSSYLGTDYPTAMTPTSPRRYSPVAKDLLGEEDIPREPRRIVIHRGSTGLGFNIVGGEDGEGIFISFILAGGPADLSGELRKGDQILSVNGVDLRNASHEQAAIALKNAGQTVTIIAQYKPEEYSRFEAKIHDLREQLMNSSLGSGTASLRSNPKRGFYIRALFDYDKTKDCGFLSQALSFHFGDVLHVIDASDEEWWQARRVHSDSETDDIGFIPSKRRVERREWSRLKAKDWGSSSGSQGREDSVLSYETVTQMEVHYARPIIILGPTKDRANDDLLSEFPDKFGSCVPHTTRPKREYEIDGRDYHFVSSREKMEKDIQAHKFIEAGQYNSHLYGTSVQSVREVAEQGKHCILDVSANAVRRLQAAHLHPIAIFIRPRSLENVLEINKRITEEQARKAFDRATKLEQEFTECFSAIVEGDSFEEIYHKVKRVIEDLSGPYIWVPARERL
UniProt Q9Z0J4: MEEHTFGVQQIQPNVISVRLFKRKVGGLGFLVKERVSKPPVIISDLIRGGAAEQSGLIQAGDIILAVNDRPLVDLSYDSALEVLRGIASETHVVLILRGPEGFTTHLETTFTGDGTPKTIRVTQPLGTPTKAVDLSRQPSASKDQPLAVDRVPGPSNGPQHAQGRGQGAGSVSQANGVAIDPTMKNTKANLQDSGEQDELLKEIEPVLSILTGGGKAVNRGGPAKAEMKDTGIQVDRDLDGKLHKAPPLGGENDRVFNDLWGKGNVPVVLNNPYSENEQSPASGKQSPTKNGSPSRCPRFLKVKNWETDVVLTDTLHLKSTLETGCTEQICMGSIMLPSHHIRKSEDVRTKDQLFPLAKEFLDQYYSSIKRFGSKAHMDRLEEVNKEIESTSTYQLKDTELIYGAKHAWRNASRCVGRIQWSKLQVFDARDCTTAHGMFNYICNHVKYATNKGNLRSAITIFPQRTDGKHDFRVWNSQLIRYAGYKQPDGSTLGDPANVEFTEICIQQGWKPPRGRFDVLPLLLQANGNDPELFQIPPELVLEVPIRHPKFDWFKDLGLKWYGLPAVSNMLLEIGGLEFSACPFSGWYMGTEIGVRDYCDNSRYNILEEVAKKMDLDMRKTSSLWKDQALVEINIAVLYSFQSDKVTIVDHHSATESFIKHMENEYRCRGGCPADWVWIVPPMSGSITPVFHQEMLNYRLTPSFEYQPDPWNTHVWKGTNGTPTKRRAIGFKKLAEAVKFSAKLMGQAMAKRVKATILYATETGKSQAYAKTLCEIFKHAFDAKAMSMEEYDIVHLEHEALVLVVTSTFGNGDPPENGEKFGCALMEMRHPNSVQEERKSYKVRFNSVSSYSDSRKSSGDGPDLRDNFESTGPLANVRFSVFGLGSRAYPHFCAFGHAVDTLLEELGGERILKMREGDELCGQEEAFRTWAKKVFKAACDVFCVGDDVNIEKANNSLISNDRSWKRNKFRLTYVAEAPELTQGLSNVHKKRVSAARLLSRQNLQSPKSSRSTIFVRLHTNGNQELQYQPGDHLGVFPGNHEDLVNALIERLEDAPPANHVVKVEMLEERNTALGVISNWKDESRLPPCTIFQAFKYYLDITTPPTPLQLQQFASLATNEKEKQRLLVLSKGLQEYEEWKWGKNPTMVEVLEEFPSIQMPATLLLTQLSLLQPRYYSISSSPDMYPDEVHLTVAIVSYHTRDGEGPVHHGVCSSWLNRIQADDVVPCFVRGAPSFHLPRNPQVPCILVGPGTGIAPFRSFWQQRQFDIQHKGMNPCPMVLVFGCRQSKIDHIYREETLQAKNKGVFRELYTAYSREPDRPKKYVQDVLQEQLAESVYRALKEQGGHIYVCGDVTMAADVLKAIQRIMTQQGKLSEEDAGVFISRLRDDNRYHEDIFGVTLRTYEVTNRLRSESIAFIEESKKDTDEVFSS
UniProt Q62083: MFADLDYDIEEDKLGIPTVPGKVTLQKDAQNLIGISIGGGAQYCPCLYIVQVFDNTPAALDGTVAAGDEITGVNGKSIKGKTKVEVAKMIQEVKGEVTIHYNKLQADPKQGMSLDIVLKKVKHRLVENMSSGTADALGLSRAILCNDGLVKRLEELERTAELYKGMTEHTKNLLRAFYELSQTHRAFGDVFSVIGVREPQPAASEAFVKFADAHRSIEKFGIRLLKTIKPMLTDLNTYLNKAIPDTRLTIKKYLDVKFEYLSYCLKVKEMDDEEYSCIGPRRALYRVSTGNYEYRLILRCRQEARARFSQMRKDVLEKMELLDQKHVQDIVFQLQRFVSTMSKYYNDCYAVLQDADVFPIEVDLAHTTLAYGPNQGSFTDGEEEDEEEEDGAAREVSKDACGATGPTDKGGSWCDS

Legend:
PSD-95 PDZ1-2 = PSD-95 PDZ1-2 (UniProt P78352); assay: FP competition
[1] = molecular target: PSD-95 protein in mouse spinal cord lysate (mouse) (UniProt Q62108); assay: streptavidin bead pull-down from mouse spinal cord lysate, Western blot
[2] = molecular target: PSD-95 protein in mouse spinal cord lysate (mouse) (UniProt Q62108); assay: pull-down with biotinylated peptide on streptavidin beads from mouse spinal cord lysate, western blot
[3] = molecular target: nNOS protein in mouse spinal cord lysate (mouse) (UniProt Q9Z0J4); assay: streptavidin bead pull-down from mouse spinal cord lysate, Western blot
[4] = molecular target: nNOS protein in mouse spinal cord lysate (mouse) (UniProt Q9Z0J4); assay: pull-down with biotinylated peptide on streptavidin beads from mouse spinal cord lysate, western blot
[5] = molecular target: PICK1 protein in mouse spinal cord lysate (mouse) (UniProt Q62083); assay: streptavidin bead pull-down from mouse spinal cord lysate, Western blot

| Binder | binding (PSD-95 PDZ1-2) | binding [3] | binding [4] | other results |
| --- | --- | --- | --- | --- |
| GEIAKSLKEIAKSLKEIAWSLKEIAKSLKGGGGSIETDV (N-terminal biotin joined through 6-aminohexanoic acid (Ahx)) [CC-Hex2-GS4-IETDV] | binds |  |  | binding [1]: binds; binding [2]: binds |
| RMKQIEDKLEEILSKLYHIENELARIKKLLGGGGSWGESV (N-terminal biotin joined through 6-aminohexanoic acid (Ahx)) [GCN4p1(ILI)-GS4-WGESV] |  | binds | binds |  |
| GEIAKSLKEIAKSLKEIAWSLKEIAKSLKGGGGSHWLKV (N-terminal biotin joined through 6-aminohexanoic acid (Ahx)) [CC-Hex2-GS4-HWLKV] |  |  |  | binding [5]: binds |

Further lines, with some results ahead:

| binding (PSD-95 PDZ1-2) | binding [3] | binding [4] | Binder | other results |
| --- | --- | --- | --- | --- |
|  | binds | binds | GEIAKSLKEIAKSLKEIAWSLKEIAKSLKGGGGSWGESV (N-terminal biotin joined through 6-aminohexanoic acid (Ahx)) [CC-Hex2-GS4-WGESV] |  |
| binds |  |  | GEIAKSLKEIAKSLKEIAWSLKEIAKSLKGGGGSRRTTPV (N-terminal biotin joined through 6-aminohexanoic acid (Ahx)) [CC-Hex2-GS4-RRTTPV] |  |
